The other results are listed elsewhere or left out.
Each compound was assayed on T1, CTL2-GFP (C. trachomatis L2/434/Bu, GFP-expressing). Settings: bulk GFP, single well; 28.5 h, 10 µM; inhibitor.
T1 construct: L2/434/Bu, GFP-expressing
Set-up: species or system HeLa; Intracellular C. trachomatis growth in HeLa cells, bulk GFP fluorescence relative to DMSO

Row | SMILES | % of control remaining [%]
1 | COc1ccc(-c2ccc3c(c2)COC2(CCCNC2)O3)c(OC)c1 (stereo not drawn) [CBK105316] | 58.0421
2 | CCc1cc(Br)ccc1S(=O)(=O)NCCCC(=O)OC [CBK044788] | 143.849
3 | CC(C)(C)NS(=O)(=O)c1ccc(CCC(=O)Nc2ccc(F)c(Cl)c2)cc1 [CBK266974] | 135.824
4 | O=C(Cn1ccc([N+](=O)[O-])n1)NCc1ccco1 [CBK268999] | 119.294
5 | COc1cc(CNc2ccc(N3CCCCC3)cc2)ccc1OCc1ccccc1F [CBK074472] | 87.3598
6 | CNC(=S)N1CCN(c2nccnc2NS(=O)(=O)Cc2ccccc2)CC1 [CBK049044] | 108.593
7 | c1ccc(Cc2csc(C3CN4CCCC4CO3)n2)cc1 (stereo not drawn) [CBK304202] | 121.661
8 | O=C(Nc1cccc(Cl)c1)c1cc2cc(O)ccc2cc1O [CBK016894] | 120.607
9 | Cc1nn(CC(=O)N(C)C2CCCCC2)c(=O)c2cc3occc3n12 [CBK283653] | 120.351
10 | O=C(CC(NC1CCCC1)C(=O)O)Nc1ccc(F)cc1 (stereo not drawn) [CBK266976] | 206.95
11 | Cc1cc([N+](=O)[O-])ccc1-c1ccc(C(=O)Nc2ccc(O)c(-c3nc4ccccc4s3)c2)o1 [CBK263421] | 124.82
12 | COc1ccc(CN2CCOC(C(=O)O)C2)cc1Cn1cncn1 (stereo not drawn) [CBK306919] | 120.654
13 | Cc1cc(OCC(=O)Nc2ccccc2CO)cc(C)c1Br [CBK265094] | 100
14 | COC(=O)c1ccc(NC(=O)CN2CCC(C(N)=O)(N3CCCCC3)CC2)cc1 [CBK268275] | 111.217
15 | COC(=O)c1cc(NS(=O)(=O)c2cc(Cl)ccc2Cl)cc(C(=O)OC)c1 [CBK077853] | 109.994
16 | Cc1nc(N)nc(NCC(O)CN(C)C)c1Cl (stereo not drawn) [CBK306963] | 118.274
17 | CCN1C(=O)c2[nH]nc(-c3ccccc3O)c2C1c1cccc(O)c1 (stereo not drawn) [CBK288159] | 106.577
18 | O=C(O)c1ccc(/C=N/c2ccc(S(=O)(=O)c3ccc(/N=C/c4ccc(C(=O)O)cc4)cc3)cc2)cc1 [CBK262038] | 117.517
19 | CNC(=S)N/N=C/c1c(C)cccc1Cl [CBK021253] | 110.287
20 | Cc1ccc(CN(CCCn2ccnc2)Cc2ccsc2)o1 [CBK283253] | 106.906
21 | Cc1cn(C2CC(O)C(C3N(c4ccccc4)CCN3c3ccccc3)O2)c(=O)[nH]c1=O (stereo not drawn) [CBK201232] | 102.462
22 | Cc1cc(N2CCOCC2)c2c(N)c(Br)cc(C)c2n1 [CBK066880] | 108.512
23 | CCN(CC)C(=O)CN1CCC(c2ccc(OC)cc2)CC1 [CBK283559] | 126.874
24 | Cc1cccnc1NC(=O)c1c(O)c2ccccc2n(C)c1=O [CBK261431] | 115.78
25 | O=C(NCCCN1CCOCC1)c1cc2cc([N+](=O)[O-])ccc2oc1=O [CBK263441] | 132.241
26 | O=S(=O)(Nc1ccc(C(O)(C(F)(F)F)C(F)(F)F)cc1)c1csc2ccccc12 [CBK062098] | 118.914

Row | SMILES | % of control remaining [%]
27 | CS(=O)(=O)N1CC2(CCNCC2)c2ccccc21 [CBK005171] | 112.105
28 | Cc1ccc(S(N)(=O)=O)cc1NC(=O)c1ccc[nH]1 [CBK050200] | 101.555
29 | Cc1ccc(S(=O)(=O)N2CCC(C(=O)NC(c3ccccc3C)c3ncccc3C)CC2)cc1 (stereo not drawn) [CBK060249] | 123.156
30 | CCCC/C=C/c1nccnc1NCCc1ccncc1 [CBK037370] | 135.775
31 | COc1ccc(C(=O)n2nc(SC)nc2N)cc1 [CBK006853] | 143.107
32 | O=C(NCCOc1ccccc1Cl)NC(=O)C1CCN(CCOc2ccc(Br)cc2)CC1 [CBK034897] | 106.563
33 | CC(NC(=O)N(Cc1c[nH]c(-c2ccccc2)n1)CC(C)(C)CN)c1cccc2ccccc12 (stereo not drawn) [CBK026801C] | 53.6869
34 | COc1cc2c(c(OC)c1OC)CC(=O)NC21CCN(C(=O)CC(C)CC(=O)O)CC1 (stereo not drawn) [CBK047265] | 109.155
35 | CCN(CC)C(=O)Cn1nc(C)n2c(cc3occc32)c1=O [CBK283620] | 109.172
36 | O=C(Nc1ccc(OCc2ccccc2F)cc1)c1ccc(-n2cnnc2)cc1 [CBK285816] | 144.388
37 | COCCn1c(-c2ccc(CN3CCCC3)cc2)cc2onc(C)c2c1=O [CBK050385C] | 75.09
38 | Cc1cccc(C(=O)NC(=S)Nc2cccc(C(=O)O)c2)c1 [CBK264987] | 100.102
39 | Cc1cc(OCC(=O)Nc2nn(Cc3ccccc3Cl)cc2Cl)ccc1[N+](=O)[O-] [CBK268113] | 120.636
40 | O=C(Nc1ccc(I)cc1C(=O)N1CCCCC1CCO)c1cccc2ccccc12 (stereo not drawn) [CBK266212] | 129.959
41 | CCN(CC)C(=O)c1[nH]c2ccccc2c1NS(=O)(=O)c1ccc(F)cc1 [CBK050105] | 61.648
42 | CCn1cc(-c2cncn2C(CCN(C)C)c2ccccc2)cn1 (stereo not drawn) [CBK281741] | 142.855
43 | Cc1ccccc1NS(=O)(=O)c1cc(OCC(N)=O)c(C)cc1Cl [CBK266443] | 151.759
44 | CCc1nc2ccc(C(=O)Nc3ccc(OC)c(OC)c3)cn2c1N(CC)C(=O)NCCc1ccccc1 [CBK147035] | 113.835
45 | O=C(CSc1nnc(-c2ccncc2)o1)Nc1ccccc1 [CBK287586] | 127.577
46 | COc1ccc(C)cc1S(=O)(=O)Nc1ccc(O[C@@H]2CCNC2)c2ccccc12 [CBK051622C] | 78.6645
47 | O=C1CC(C(=O)c2ccccc2)NC(N2CCOCC2)=N1 (stereo not drawn) [CBK267352] | 121.611
48 | CNC(=O)C1CCCN1C(=O)c1nnn(Cc2ccc(F)cc2F)c1C (stereo not drawn) [CBK306496] | 142.904
49 | C(CSC1=NCCN1)CSC1=NCCN1 [CBK278217B] | 106.923
50 | Cc1nnc(SCc2ccc(CSc3nnc(C)n3N)cc2)n1N [CBK265561] | 113.901
51 | CCN(CC)C(=O)CCCc1[nH]nc(O)c1Cc1c(Cl)cccc1Cl [CBK081524] | 129.383
52 | Cc1nn(C(C)CC(=O)O)c(C)c1Br (stereo not drawn) [CBK269138] | 129.254

Among those listed so far, 5 contain bromine:
Row | SMILES | % of control remaining [%]
2 | CCc1cc(Br)ccc1S(=O)(=O)NCCCC(=O)OC [CBK044788] | 143.849
13 | Cc1cc(OCC(=O)Nc2ccccc2CO)cc(C)c1Br [CBK265094] | 100
22 | Cc1cc(N2CCOCC2)c2c(N)c(Br)cc(C)c2n1 [CBK066880] | 108.512
32 | O=C(NCCOc1ccccc1Cl)NC(=O)C1CCN(CCOc2ccc(Br)cc2)CC1 [CBK034897] | 106.563
52 | Cc1nn(C(C)CC(=O)O)c(C)c1Br (stereo not drawn) [CBK269138] | 129.254

Next structures:

Row | SMILES | % of control remaining [%]
53 | CCC(CC)C(=O)N(C)c1c(C)nc2ccc(C(=O)N(C)CCN(C)C)cn12 [CBK146491] | 89.7146
54 | O=C(CC1CCCC1)N1CCCC(c2nnc(-c3cccs3)o2)C1 (stereo not drawn) [CBK284631] | 145.073
55 | O=C(Nc1ccc([C@@H](O)[C@H]2COCC(=O)N2Cc2ccccn2)cc1)c1cccs1 [CBK289700] | 119.091
56 | CCCCC(CC)C(=O)N1CCN(c2ccc(OC)cc2)CC1 (stereo not drawn) [CBK091414] | 112.726
57 | Cn1ccc(C2CCCCCN2S(=O)(=O)c2ccc3[nH]c(=O)[nH]c(=O)c3c2)n1 (stereo not drawn) [CBK286407] | 119.069
58 | N#Cc1ccc(Cn2ccnc(N3CCC(Sc4ccccc4)CC3)c2=O)cc1 [CBK153653] | 86.7735
59 | COC(=O)COc1ccc(NC(=O)c2ccc([N+](=O)[O-])c(C)c2)cc1 [CBK268338] | 147.289
60 | Cc1nn(Cc2ccccc2)c(C)c1NC(=O)CSc1nc2sc3c(c2c(=O)n1C)CCC3 [CBK266069] | 119.863
61 | O=C(Cc1cc(F)c(F)c(F)c1)NCCc1c[nH]c2ccc(Cl)cc12 [CBK159768] | 103.593
62 | O=C(c1c(F)cccc1F)N1CCC(O)(c2cccnc2F)CC1 [CBK284359] | 98.3471
63 | COC(=O)c1c(NC(=O)CCCC(=O)O)sc(C)c1C [CBK265382] | 108.622
64 | Cc1c[n+]2ccsc2n1Cc1ccccc1C#N [CBK260951B] | 73.1837
65 | CCN(CC)CCN1C(=O)C(O)=C(C(=O)c2ccc(C)o2)C1c1ccccn1 (stereo not drawn) [CBK266584] | 92.7123
66 | O=C(Cc1ccc(Cl)cc1)N1CCc2c([nH]c3ccccc23)C12CCN(Cc1ccc(F)cc1)C2 (stereo not drawn) [CBK059453] | 94.7842
67 | CCNC(=O)Nc1ccccc1C(=O)NC1CCCCC1 [CBK175266] | 120.296
68 | CCn1c(COc2cccc3cccnc23)nnc1SCC(=O)c1ccc(F)cc1 [CBK265656] | 122.668
69 | Cc1ccc(S(=O)(=O)/N=C(\NC(C)C(=O)O)c2ccccc2)cc1 (stereo not drawn) [CBK263099] | 120.474
70 | COC(=O)C(CCSC)NC(=O)c1ccc(C(F)(F)F)cc1 (stereo not drawn) [CBK057452] | 123.306
71 | CCCCCCSc1ccc(C(=O)CCCN2CCOCC2)cc1 [CBK010344] | 136.701
72 | O=c1oc(-c2ccncc2)nn1Cc1ccccc1F [CBK283692] | 134.073
73 | Cc1nc2c(C(=O)NCCOCCO)cnn2c(C)c1Cc1cccc(OC(F)(F)F)c1 [CBK167454] | 74.7184
74 | O=C(OCc1cc2ccccc2o1)N1CCOCC1 [CBK200162] | 111.747
75 | COc1cc(C)c(Nc2cc(-c3cccc(N(C)C)c3)ncn2)cc1OC [CBK090780] | 88.5684
76 | CN1CCCN(c2cncc(-c3ccc(F)cc3F)n2)CC1 [CBK065858] | 147.751
77 | Cc1ccc(C(=O)Nc2c(C(=O)N3CCN(Cc4ccccc4)CC3)cnn2-c2ccccc2)cc1 [CBK263053] | 100
78 | COc1ccc(C(=O)O)cc1S(=O)(=O)Nc1cccc(C=Cc2ccccn2)c1 [CBK297763] | 116.915

From publication PMC12040169 (PLOS Biology, 2025)
